## Screening data, single-dose tests

By UniProt entry, the sequences of proteins in these tests, tags left out. Residues count along the entry.
UniProt Q8IDJ8, 1-583: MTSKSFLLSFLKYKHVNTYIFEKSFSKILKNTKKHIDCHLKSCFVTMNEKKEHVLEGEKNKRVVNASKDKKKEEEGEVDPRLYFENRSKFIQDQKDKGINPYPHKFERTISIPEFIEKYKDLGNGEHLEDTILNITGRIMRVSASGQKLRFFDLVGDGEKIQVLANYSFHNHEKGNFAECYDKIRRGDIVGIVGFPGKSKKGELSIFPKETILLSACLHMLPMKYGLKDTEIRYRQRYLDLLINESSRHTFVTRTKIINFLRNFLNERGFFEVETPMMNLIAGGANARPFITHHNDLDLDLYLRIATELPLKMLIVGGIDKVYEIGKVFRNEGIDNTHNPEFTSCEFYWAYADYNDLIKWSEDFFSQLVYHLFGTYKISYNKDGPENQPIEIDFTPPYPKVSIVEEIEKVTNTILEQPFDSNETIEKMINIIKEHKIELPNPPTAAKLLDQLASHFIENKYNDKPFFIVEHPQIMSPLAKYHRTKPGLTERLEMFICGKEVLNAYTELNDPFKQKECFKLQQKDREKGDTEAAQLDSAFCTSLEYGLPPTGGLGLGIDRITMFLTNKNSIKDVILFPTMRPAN
UniProt P9WPC5, whole entry: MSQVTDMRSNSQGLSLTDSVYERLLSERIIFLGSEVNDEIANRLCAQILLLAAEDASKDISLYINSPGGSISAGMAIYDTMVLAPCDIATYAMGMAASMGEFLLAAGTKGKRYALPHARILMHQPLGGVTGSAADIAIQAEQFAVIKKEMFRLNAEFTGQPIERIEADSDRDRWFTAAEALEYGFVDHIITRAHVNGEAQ
UniProt P9WPC3, whole entry partner: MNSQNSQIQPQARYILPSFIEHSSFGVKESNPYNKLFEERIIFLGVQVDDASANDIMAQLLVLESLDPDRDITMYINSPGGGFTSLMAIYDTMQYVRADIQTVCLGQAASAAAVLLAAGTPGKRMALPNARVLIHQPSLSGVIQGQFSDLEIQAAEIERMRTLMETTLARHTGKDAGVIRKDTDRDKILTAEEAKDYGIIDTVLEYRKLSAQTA
UniProt P9WFT3, whole entry: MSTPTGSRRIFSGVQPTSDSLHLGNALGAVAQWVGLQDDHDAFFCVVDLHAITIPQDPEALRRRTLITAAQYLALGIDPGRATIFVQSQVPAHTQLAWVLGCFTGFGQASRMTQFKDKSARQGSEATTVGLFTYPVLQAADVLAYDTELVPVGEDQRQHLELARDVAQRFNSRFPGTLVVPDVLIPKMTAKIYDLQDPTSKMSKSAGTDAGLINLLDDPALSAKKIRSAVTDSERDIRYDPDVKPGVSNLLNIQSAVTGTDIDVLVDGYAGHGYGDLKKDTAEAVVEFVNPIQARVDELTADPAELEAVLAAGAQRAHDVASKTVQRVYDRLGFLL

PfKRS1: 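Enzyme assay of the cytosolic lysyl-tRNA synthetase in 384-well plates, read by luminescence. Target: Lysine-tRNA ligase, Plasmodium falciparum 3D7 (UniProt Q8IDJ8). Compounds at 30 µM. Direction is inferred from only a few compounds that gave an IC50; most scored high, so higher reads as stronger inhibition. About 69,000 compounds were tested under these conditions; 0.071% (about 49) showed 50% or more at least once.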
ClpP1P2: 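Protease assay of ClpP1P2, read by the AMC dye that it sets free. Target: ClpP1P2, Mycobacterium tuberculosis (UniProt P9WPC5 and UniProt P9WPC3). Compounds at 50 µM. Higher reads as stronger inhibition, judged from the few compounds that gave an IC50. Most other retested compounds had strongly negative values. Of about 69,000 compounds tested this way, about 10 (0.015%) reached 50% or more in at least one test.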
MtTrpRS: 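Enzyme assay of tryptophanyl-tRNA synthetase; the read-out is not stated. Target: Tryptophan-tRNA ligase, Mycobacterium tuberculosis (UniProt P9WFT3). Concentration: 10 µM. Higher most likely means stronger inhibition; the record gives no direction and few retests gave an IC50. About 65,000 compounds were tested under these conditions; 0.098% (about 64) showed 50% or more at least once.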

Each number is a percent effect as filed. The controls that fix the scale are not given in the record; negative values are as filed. The compounds are a random part of those screened.

Result for CCO[C@H]1COC[C@@H]1NC(=O)c1c[nH]nc1C1CCCCC1 was PfKRS1: -3.705%; ClpP1P2: -4.284%; MtTrpRS: 4.075%. With COc1cc(C(=O)Nc2nc(C)no2)ccc1C the screen gave PfKRS1: 8.853%; ClpP1P2: 3.017%; MtTrpRS: 1.023%. COCCN(Cc1cccnc1)S(=O)(=O)c1cc(C)ccc1F read PfKRS1: 1.395%; ClpP1P2: -2.787%; MtTrpRS: 1.665%. O=C(NCC1CCOC1)c1csc(-c2ccco2)n1 (centres undefined) gave PfKRS1: 2.608%; ClpP1P2: 17.49%; MtTrpRS: -2.958%. Result for Cc1cc(C(=O)N2CCCC(n3nc(C)cc3C)C2)on1 (centres undefined) was PfKRS1: 7.702%; ClpP1P2: -4.001%; MtTrpRS: 0.08136%. With CCCc1nc(N2CCCC(CCOC)C2)c2cnn(C)c2n1 (centres undefined) the screen gave PfKRS1: -0.389%; ClpP1P2: 25.22%; MtTrpRS: -0.06473%. CCN(CC)CCCNC(=O)c1nn(CC)cc1Cl read PfKRS1: 2.244%; ClpP1P2: -6.793%; MtTrpRS: -1.036%. With CN(C)C(=O)NC1COC2(CCN(C(=O)c3ccc(Cl)cc3)CC2)C1 (centres undefined) the screen gave PfKRS1: 5.644%; ClpP1P2: -3.07%; MtTrpRS: 3.961%.

For Cc1nn(C)c(N(C)C)c1CNC(C)COc1cccc(F)c1 (centres undefined) the result was PfKRS1: -12.8%; ClpP1P2: 3.636%; MtTrpRS: -1.981%. COCCNC(=O)C[C@@H]1COC[C@H]2CN(Cc3cccnc3)C[C@@H]12 gave PfKRS1: 1.7%; ClpP1P2: -15.7%. With Cc1cc(NC(=O)CCCn2ccnc2C)nc(C(C)C)n1 the screen gave PfKRS1: 21.45%; ClpP1P2: -3.704%; MtTrpRS: -2.422%. CS(=O)(=O)N1CCO[C@@H]2CN(Cc3ccc(F)cc3)C[C@@H]2C1 gave PfKRS1: 4.501%; ClpP1P2: 1.481%; MtTrpRS: -0.07047%. Result for CC(C)Cc1ccc(S(=O)(=O)NCCCN2CCNC(=O)C2)cc1 was PfKRS1: 3.19%; ClpP1P2: -4.396%; MtTrpRS: 1.358%. Cc1occc1C(=O)N1CCc2c(CNS(C)(=O)=O)cncc2C1 read PfKRS1: -2.618%; ClpP1P2: -13.32%; MtTrpRS: -3.635%. Result for Cc1ccc(OCC(=O)NC2CCN(S(C)(=O)=O)CC2)cc1 was PfKRS1: -0.09379%; ClpP1P2: -25.72%; MtTrpRS: 1.76%. Result for CCNC(=O)CCC(=O)N1CCC(Oc2cc(C)ccc2C)CC1 was PfKRS1: 2.278%; ClpP1P2: -11.59%; MtTrpRS: 2.72%.

Cc1nc2c(Nc3cccc(C#N)c3)nc(N)nc2n1C read PfKRS1: 4.295%; ClpP1P2: -21.92%; MtTrpRS: 0%. For CCc1ccc(CN2CCC(CNS(=O)(=O)C3CC3)C2)nc1 (centres undefined) the result was PfKRS1: 1.342%; ClpP1P2: -7.057%; MtTrpRS: 0.3018%. For COCC(=O)N[C@H](C(=O)NC(C)c1cccc(C)c1C)C(C)C (some centres undefined) the result was PfKRS1: 1.925%; ClpP1P2: 3.35%; MtTrpRS: -1.413%. Cc1nc(Nc2ncc(C)s2)cc(C2CCCN2)n1 (centres undefined) read PfKRS1: 2.888%; ClpP1P2: -5.349%; MtTrpRS: -3.317%. CC(C)NC(=O)Nc1ncc(-c2cccnc2)s1 read PfKRS1: -0.1287%; ClpP1P2: 1.541%; MtTrpRS: -0.7236%. Cc1cc(C(F)(F)F)nc(CNC(=O)C2CCCCCN2C)n1 (centres undefined) read PfKRS1: 0.8261%; ClpP1P2: 7.241%; MtTrpRS: -0.1903%. Clc1cccc(C[C@@H]2NCCC[C@@H]2Nc2cccc(Cl)c2)c1 gave PfKRS1: 3.022%; ClpP1P2: 17.63%; MtTrpRS: 6.182%. Cc1ncoc1C(=O)N1CCn2c(COc3cccnc3)cnc2C1C (centres undefined) gave PfKRS1: 3.347%; ClpP1P2: 8.489%; MtTrpRS: -1.046%.

The last 2 entries again:

compound	PfKRS1	ClpP1P2	MtTrpRS
Clc1cccc(C[C@@H]2NCCC[C@@H]2Nc2cccc(Cl)c2)c1	3.022%	17.63%	6.182%
Cc1ncoc1C(=O)N1CCn2c(COc3cccnc3)cnc2C1C (centres undefined)	3.347%	8.489%	-1.046%

Data taken from ChEMBL document CHEMBL3988442, “University of Dundee, Small-Polar-MMV Screening Library” (2021).